No constants are given. Whether binding was seen depends on the method and setting. Some entries that bind do so weakly or less than the wild type.
Columns and labels:
[1] = molecular target: T1, fCK18 in apoptosis-induced HepG2 cell culture supernatant (human) (UniProt P05783); test: immunoprecipitation with antibody-bound magnetic microbeads, Western blot detected with K18-328Fab-ALP
T1 sequence: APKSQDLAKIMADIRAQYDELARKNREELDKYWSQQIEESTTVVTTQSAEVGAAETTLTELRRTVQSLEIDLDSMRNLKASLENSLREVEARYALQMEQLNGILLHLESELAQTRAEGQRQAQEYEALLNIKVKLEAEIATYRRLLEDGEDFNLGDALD

[2] = molecular target: T1, fCK18 in apoptosis-induced HepG2 cell culture supernatant (human); test: sandwich immunoassays of Example 4 against the commercial M30 kit

binding [1]: binds
binding [2]: binds
B1: K18-624 antibody (antibody, V domains shown)
VH: DVQLVESGGGLVQPGGSRKLSCAASGFTFSSFGMHWVRQAPEKGLEWVAYISSGSTTIYYADTVKGRFTISRDNPKNTLFLQMTSLRSEDTAMYYCARRGMITTGAWFAYWGQGTLVTVSA
VL: DILLTQSPAILSVSPGERVSFSCRASQRIGTSIHWYQQRTNGSPRLLIKYASESISGIPSRFSGSGSGTDFTLSINSVESEDIADYYCQQSYIWPFTFGSGTKLEIK

Source: patent publication US20220267427A1
